No constants are given. Whether binding was seen depends on the method and setting. Some binding calls cover weakened binding; strength is not graded here.
Biological target: GRK2-phosphorylated CCR5 (human) (UniProt P51681)
Assay: negative-stain EM

Protein sequences, listed by entry. Tags and fused reporters are not part of them.
UniProt P51681: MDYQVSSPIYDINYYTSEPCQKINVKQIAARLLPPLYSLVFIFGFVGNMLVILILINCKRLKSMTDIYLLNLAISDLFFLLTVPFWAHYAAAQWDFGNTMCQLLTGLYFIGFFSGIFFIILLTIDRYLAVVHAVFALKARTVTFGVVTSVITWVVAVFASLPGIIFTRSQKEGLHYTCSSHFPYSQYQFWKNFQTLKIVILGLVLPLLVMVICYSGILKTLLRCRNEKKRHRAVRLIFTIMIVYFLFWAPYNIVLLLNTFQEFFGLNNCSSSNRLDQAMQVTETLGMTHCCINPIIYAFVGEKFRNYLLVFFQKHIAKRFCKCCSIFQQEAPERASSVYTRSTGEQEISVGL

B1: arrestin2^1-393 (domain or fragment)
chain: MGDKGTRVFKKASPNGKLTVYLGKRDFVDHIDLVDPVDGVVLVDPEYLKERRVYVTLTCAFRYGREDLDVLGLTFRKDLFVANVQSFPPAPEDKKPLTRLQERLIKKLGEHAYPFTFEIPPNLPCSVTLQPGPEDTGKACGVDYEVKAFLAENLEEKIHKRNSVRLVIRKVQYAPERPGPQPTAETTRQFLMSDKPLHLEASLDKEIYYHGEPISVNVHVTNNTNKTVKKIKISVRQYADIVLFNTAQYKVPVAMEEADDTVAPSSTFSKVYTLTPFLANNREKRGLALDGKLKHEDTNLASSTLLREGANREILGIIVSYKVKVKLVVSRGGLLGDLASSDVAVELPFTLMHPKPKEEPPHREVPENETPVDTNLIELDTNDDDIVFEDFAR
- binding: binds
